This test concerns the target T1, biotin-DAG peptide on Sera-Mag magnetic particles.
T1 sequence (peptide, cyclic peptide; biotin at the N-terminus): CDAGRKQKC
The test is described as follows: affinity purification with mass spectrometry; U251 lysate (200 mM n-octyl-beta-D-glucopyranoside in PBS) on magnetic particles coated with biotin-DAG, overnight at 4 °C; washed with 0.5 mM control peptide; eluted with 1 mM free DAG; LC-MS/MS; only the target purified.

By UniProt entry, the sequences of proteins in these tests, tags left out. Residues count along the entry.
UniProt P29279, residues 27-349: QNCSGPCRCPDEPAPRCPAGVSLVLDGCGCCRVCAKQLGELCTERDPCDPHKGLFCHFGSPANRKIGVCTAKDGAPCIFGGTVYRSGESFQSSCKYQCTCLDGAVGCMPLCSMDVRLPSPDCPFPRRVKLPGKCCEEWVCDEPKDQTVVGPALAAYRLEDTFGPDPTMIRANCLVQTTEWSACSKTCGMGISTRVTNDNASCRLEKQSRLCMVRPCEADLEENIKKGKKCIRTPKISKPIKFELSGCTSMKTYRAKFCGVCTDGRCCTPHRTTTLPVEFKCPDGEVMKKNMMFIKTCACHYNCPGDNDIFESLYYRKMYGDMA

These are yes or no findings as the source states them, for the method shown. Binding seen in cells or lysates may run through a third protein. Here binding means that the protein was enriched with, or labelled near, the bait; the list need not be complete.

In the case of “connective tissue growth factor (CTGF) of U251 cells (from UniProt P29279 27-349)”, the binding result was “binds”.
